According to PubChem BioAssay AID1347076 (National Center for Advancing Translational Sciences (NCATS), 2019):
Among all 400,000 compounds or so, about 13,000 (3.2%) were called active. This list was built around the results that the source calls inconclusive (neither active nor inactive); the mix of calls is not that of the screen. Calls come from the whole dose curve; as a rule, active = well fitted cell-killing curve with a large enough effect; inconclusive = small, poorly fitted or top-dose-only effect, or effect the other way; inactive = flat fitted curve, though single readings scatter. Where the call is inconclusive, the potency comes from a doubtful curve fit.

Assay: qHTS assay for MDR1-selective chemotherapeutics: Primary screen using the drug-selected MDR subline cells KB-V1; note: nearly all actives have a fitted effect of over 60% in size
Conditions: KB-V1 MDR cells viability, CellTiter-Glo, 72 h; activity change, negative = cytotoxicity: at 46.1 µM (top of the series)
How it was run: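 Compound-treated KB-V1 multidrug-resistant cells, 72 h, 37 degrees C; viability by CellTiter-Glo. Fitted qHTS curves give the values.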
% is set by controls: 0 for no effect and ±100 for the full control effect; potency is the fitted concentration of half-maximal effect.

Structure (SMILES)	Potency	activity change, negative = cytotoxicity
Cc1cc2c(cc1C)N(C(=O)CN1C(=O)c3ccccc3C1=O)C(C)(C)c1ssc(=S)c1-2	inconclusive: 10.3 µM [cytotoxic, partial curve, poor fit]	
COc1ccc(-c2n[nH]c(C(F)(F)F)c2-c2cc3ccccc3o2)c(O)c1	active: 18.4 µM	
COc1ccc(C(=O)NNC(=S)NC(=O)/C=C/c2cccs2)cc1	inconclusive: 2.91 µM [cytotoxic, partial curve, poor fit]	
COc1ccccc1NC(=S)NCCc1c[nH]c2ccccc12		inactive: -7.89%
COc1cc(CN2CCN(Cc3c[nH]c4ccccc34)CC2CCO)cc(OC)c1 (configuration not stated)		inactive: 9.78%
CC1CC(C)(C)NC(=S)N1CCC(=O)N1CCc2ccccc2C1 (configuration not stated)	inconclusive: 11.6 µM [cytotoxic, partial curve]	
CC(C)CCN1C(=O)CSCC1(C)C(=O)NC(C)C (configuration not stated)		inactive: -4.14%
CCOc1ccccc1NC(=O)CN1C(=O)CC(c2ccc(OC)c(OC)c2)Sc2ccccc21 (configuration not stated)	active: 18.4 µM	
Cc1c(-c2ccc(Br)cc2)nc2ccccn12	active: 20.6 µM	
O=C(O)c1ccccc1NS(=O)(=O)c1ccc(NN=Cc2ccccc2F)c([N+](=O)[O-])c1	inconclusive: 29.1 µM [rising, single point]	
CC(C)(C)c1ccc(C(=O)Nc2ccc(C=C(C#N)C#N)cc2)cc1	inconclusive: 18.4 µM [cytotoxic, single point]	
Cn1c(-c2ccc3c(c2)OCO3)cc(=O)c2ccccc21		inactive: -7.42%
COCCCC1CCN(C(=O)C2CCC(=O)N(Cc3cccc(F)c3)C2)CC1 (configuration not stated)		inactive: -8.43%
Cc1cc(C)n2ncc(C(=O)NCC(C)C)c2n1		inactive: 16%
CC(=O)c1cc(C#N)c(N2CCCCC2)nc1C	inconclusive: 4.61 µM [cytotoxic, full curve, poor fit]	
CCN1CCOC(=O)C1CC(=O)Nc1cc(C)cc(C)c1 (configuration not stated)	inconclusive: 18.4 µM [rising, partial curve, poor fit]	
CCNC(=O)Cn1cnc2c1c(=O)n(C)c(=O)n2C	inconclusive: 20.6 µM [rising, single point]	
Cc1ccc(CNC(=O)Cn2c(=O)n(-c3ccc(Cl)cc3)c(=O)c3c(C)c(C)sc32)cc1	inconclusive: 11.6 µM [rising, partial curve, poor fit]	
C=C(c1cn(C(C)=O)c2ccccc12)c1cn(C(C)=O)c2ccccc12	inconclusive: 20.6 µM [cytotoxic, single point]	
C[C@@H](NC(=O)c1coc(=O)c(Br)c1)c1ccccc1	inconclusive: 16.4 µM [cytotoxic, single point]	
Cc1ccc(N2C(=O)CCSC23C(=O)N(Cc2ccccc2)c2ccccc23)cc1F (configuration not stated)	inconclusive: 11.6 µM [cytotoxic, partial curve, poor fit]	
COc1ccc2c(c1)-c1c(ssc1=S)C(C)(C)N2C(=O)CSC1=NCCS1		inactive: -8.81%
CCOc1ccc(NC(=O)c2ccco2)c([N+](=O)[O-])c1		inactive: 7.61%
C=CCN(CC=C)c1cnn(-c2nc3ccccc3[nH]2)c(=O)c1Cl	active: 4.11 µM	

Entries of single compounds as entered above.
CCOc1ccccc1NC(=O)CN1C(=O)CC(c2ccc(OC)c(OC)c2)Sc2ccccc21 (configuration not stated) is listed with Potency: active: 18.4 µM
CC(=O)c1cc(C#N)c(N2CCCCC2)nc1C is listed with Potency: inconclusive: 4.61 µM [cytotoxic, full curve, poor fit]
Cc1cc2c(cc1C)N(C(=O)CN1C(=O)c3ccccc3C1=O)C(C)(C)c1ssc(=S)c1-2 is listed with Potency: inconclusive: 10.3 µM [cytotoxic, partial curve, poor fit]

The listing continues.

Structure (SMILES)	Potency	activity change, negative = cytotoxicity
Cc1cc(C(=O)Nc2cc(C)n(Cc3ccc(Cl)cc3)n2)no1	inconclusive: 29.1 µM [cytotoxic, single point]	
CCCCNC(=O)c1cc(C)no1	inconclusive: 16.4 µM [rising, single point]	
COCCN1C(=O)c2oc3ccccc3c(=O)c2C1c1cccc(O)c1 (configuration not stated)	inconclusive: 23.1 µM [rising, single point]	
Cc1ccc(C(=O)NCCOc2ccc(Cl)cc2)cc1		inactive: 3.64%
C[C@H]1CN([C@@H](C)CO)C(=O)CCCn2cc(nn2)CO[C@@H]1CN(C)C(=O)CCC(F)(F)F		inactive: -8.68%
COc1ccc(CC(=O)NCc2n[nH]c(=S)n2-c2cccc(Cl)c2)cc1	inconclusive: 29.1 µM [rising, single point]	
CC1CCCC(C)N1C(=O)COC(=O)c1cc(S(=O)(=O)N2CCOCC2)ccc1Cl (configuration not stated)	inconclusive: 10.3 µM [cytotoxic, partial curve, poor fit]	
CCc1c(C)c(C#N)c2nc3ccccc3n2c1NCCOC		inconclusive: -21.6%
CSc1nnc2ccc(-c3cccs3)nn12	inconclusive: 29.1 µM [cytotoxic, single point]	
CCN1CCN(CCCNC(=O)c2ccc3c(Cl)c4c(nc3c2)CCCC4)CC1		inactive: -9.53%
COCCn1c(C23CC4CC(CC(C4)C2)C3)n[nH]c1=S	inconclusive: 29.1 µM [cytotoxic, single point]	
N#C/C(=C(/O)CCl)c1nc2ccccc2[nH]1	active: 23.1 µM	
COc1cccc(/C=C2\SC(=O)N(CC(=O)NC3C=CS(=O)(=O)C3)C2=O)c1 (configuration not stated)	inconclusive: 29.1 µM [rising, single point]	
COc1ccccc1OCC(=O)NCC(c1ccc(Cl)cc1)N1CCOCC1 (configuration not stated)		inactive: -20.7%
O=C(NC1CC1)c1cccc(S(=O)(=O)N2CCOCC2)c1		inactive: -8.11%
Cc1ccc(C(=O)O/N=C(\c2ccccc2)c2cccnc2)cc1	inconclusive: 23.1 µM [rising, single point]	
Cc1ccc(NC(=O)CN(C)S(=O)(=O)c2cnc[nH]2)cc1	inconclusive: 18.4 µM [rising, single point]	
CC1=C(C(=O)N2CCCCCC2)CC(CC(=O)NC(c2ccccc2)c2ccccc2)C(=O)N1Cc1ccccc1 (configuration not stated)	inconclusive: 29.1 µM [cytotoxic, single point]	
CCCn1c(C(CO)Nc2nc(C)cs2)nc2ccccc21 (configuration not stated)	inconclusive: 29.1 µM [rising, single point]	
CCc1ccc(/C(C)=N/NC(=O)CNC(=O)/C=C/c2ccco2)cc1		inactive: 12.3%
COc1ccc(OCCCC(=O)N2CCN(S(=O)(=O)c3cccc(F)c3)CC2)cc1	inconclusive: 18.4 µM [cytotoxic, single point]	
CCc1ccccc1SCc1noc(C(=O)NCC2CCCO2)c1C(=O)O (configuration not stated)		inactive: -1.18%
Cc1cccc(CN(Nc2ccccc2)c2ccccc2)n1	inconclusive: 18.4 µM [cytotoxic, single point]	
